Reference: the supplement of paper PMC10849652
The list shows a part of the results. Residues, ends and D or L forms follow the SMILES beside them. *: point of attachment. Cbz = O=C(OCc1ccccc1)*

Sequences of proteins named here, by UniProt entry; tags and fusion partners are left off. A change or cut given only in a name is not applied to a line headed by its entry.
UniProt Q70SY1: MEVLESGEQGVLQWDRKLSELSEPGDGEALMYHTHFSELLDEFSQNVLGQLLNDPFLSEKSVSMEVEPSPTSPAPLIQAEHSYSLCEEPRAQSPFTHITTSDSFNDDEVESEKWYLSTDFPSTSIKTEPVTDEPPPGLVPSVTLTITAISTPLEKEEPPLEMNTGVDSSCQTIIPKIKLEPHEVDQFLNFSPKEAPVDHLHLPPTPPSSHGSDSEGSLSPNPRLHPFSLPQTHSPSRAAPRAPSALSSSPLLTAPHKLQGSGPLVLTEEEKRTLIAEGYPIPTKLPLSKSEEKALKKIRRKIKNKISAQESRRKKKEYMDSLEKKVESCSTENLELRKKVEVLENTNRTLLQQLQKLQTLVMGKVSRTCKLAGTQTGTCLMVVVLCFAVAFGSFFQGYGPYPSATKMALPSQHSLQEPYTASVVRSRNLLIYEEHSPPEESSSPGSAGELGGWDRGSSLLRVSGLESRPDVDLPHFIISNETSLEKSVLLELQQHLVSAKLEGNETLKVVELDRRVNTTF
UniProt Q14061: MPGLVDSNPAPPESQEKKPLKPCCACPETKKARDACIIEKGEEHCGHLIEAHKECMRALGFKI
UniProt P19784, whole entry, looked up: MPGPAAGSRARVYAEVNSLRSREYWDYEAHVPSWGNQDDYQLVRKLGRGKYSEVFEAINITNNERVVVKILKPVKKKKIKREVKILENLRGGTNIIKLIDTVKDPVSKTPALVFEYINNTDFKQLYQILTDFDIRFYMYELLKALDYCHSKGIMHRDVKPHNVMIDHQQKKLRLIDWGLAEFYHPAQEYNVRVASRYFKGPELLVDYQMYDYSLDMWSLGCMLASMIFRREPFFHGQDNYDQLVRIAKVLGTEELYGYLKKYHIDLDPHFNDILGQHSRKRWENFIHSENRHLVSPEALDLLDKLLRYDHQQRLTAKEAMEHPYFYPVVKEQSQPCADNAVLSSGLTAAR
UniProt O75976: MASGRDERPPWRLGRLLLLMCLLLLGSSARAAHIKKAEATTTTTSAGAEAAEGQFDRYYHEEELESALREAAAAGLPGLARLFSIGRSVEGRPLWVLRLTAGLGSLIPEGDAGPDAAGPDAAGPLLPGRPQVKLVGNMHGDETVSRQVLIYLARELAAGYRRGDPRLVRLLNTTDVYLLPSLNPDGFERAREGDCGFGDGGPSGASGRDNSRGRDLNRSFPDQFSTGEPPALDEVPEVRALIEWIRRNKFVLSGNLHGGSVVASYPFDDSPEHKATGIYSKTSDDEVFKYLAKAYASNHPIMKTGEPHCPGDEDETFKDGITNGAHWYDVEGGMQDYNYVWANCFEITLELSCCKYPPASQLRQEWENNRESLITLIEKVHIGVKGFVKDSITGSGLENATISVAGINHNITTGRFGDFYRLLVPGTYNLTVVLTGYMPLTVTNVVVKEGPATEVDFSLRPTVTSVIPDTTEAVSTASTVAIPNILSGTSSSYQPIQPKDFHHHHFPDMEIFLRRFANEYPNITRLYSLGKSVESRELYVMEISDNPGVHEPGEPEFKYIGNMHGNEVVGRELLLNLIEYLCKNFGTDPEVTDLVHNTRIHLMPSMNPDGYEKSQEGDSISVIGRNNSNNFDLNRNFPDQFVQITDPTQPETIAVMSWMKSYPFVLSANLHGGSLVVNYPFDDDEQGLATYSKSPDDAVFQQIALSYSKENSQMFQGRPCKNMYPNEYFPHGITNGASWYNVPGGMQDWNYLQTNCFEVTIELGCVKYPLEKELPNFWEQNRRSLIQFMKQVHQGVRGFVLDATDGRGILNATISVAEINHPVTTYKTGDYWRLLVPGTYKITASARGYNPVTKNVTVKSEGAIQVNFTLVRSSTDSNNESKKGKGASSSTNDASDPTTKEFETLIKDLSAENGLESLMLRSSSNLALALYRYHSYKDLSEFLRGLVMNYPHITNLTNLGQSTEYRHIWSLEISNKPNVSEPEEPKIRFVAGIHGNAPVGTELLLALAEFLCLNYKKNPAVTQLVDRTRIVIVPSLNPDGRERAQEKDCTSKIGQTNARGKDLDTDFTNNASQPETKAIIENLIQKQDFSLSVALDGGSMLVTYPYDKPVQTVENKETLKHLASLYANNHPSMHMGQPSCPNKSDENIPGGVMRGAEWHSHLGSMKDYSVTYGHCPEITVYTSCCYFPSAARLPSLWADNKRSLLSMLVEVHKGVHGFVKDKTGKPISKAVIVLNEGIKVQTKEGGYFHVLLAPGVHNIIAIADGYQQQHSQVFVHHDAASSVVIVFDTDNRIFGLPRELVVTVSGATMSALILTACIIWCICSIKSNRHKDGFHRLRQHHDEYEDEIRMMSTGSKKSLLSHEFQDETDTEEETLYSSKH
UniProt Q92828: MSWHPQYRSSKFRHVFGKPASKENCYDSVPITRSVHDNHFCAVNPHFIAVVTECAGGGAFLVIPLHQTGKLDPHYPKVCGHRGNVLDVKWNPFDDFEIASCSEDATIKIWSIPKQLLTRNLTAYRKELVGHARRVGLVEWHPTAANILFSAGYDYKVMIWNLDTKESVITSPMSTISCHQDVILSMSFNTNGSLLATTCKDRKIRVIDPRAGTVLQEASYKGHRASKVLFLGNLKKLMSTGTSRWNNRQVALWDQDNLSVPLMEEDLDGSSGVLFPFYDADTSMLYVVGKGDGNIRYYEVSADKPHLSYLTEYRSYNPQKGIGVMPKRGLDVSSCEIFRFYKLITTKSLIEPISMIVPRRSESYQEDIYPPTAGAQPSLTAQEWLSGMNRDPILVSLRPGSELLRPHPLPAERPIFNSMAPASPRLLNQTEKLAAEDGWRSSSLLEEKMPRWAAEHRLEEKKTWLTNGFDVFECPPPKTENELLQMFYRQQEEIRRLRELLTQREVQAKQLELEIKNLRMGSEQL
UniProt P46109: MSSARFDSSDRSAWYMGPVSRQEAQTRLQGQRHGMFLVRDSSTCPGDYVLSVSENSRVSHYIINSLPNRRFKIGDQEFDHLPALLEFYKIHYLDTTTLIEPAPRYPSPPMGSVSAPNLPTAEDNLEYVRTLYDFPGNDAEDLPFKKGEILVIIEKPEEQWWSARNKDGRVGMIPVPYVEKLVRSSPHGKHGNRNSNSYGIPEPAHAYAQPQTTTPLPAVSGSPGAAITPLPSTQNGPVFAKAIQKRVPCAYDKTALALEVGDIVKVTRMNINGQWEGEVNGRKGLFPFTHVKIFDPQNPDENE
UniProt P02458, whole entry, looked up: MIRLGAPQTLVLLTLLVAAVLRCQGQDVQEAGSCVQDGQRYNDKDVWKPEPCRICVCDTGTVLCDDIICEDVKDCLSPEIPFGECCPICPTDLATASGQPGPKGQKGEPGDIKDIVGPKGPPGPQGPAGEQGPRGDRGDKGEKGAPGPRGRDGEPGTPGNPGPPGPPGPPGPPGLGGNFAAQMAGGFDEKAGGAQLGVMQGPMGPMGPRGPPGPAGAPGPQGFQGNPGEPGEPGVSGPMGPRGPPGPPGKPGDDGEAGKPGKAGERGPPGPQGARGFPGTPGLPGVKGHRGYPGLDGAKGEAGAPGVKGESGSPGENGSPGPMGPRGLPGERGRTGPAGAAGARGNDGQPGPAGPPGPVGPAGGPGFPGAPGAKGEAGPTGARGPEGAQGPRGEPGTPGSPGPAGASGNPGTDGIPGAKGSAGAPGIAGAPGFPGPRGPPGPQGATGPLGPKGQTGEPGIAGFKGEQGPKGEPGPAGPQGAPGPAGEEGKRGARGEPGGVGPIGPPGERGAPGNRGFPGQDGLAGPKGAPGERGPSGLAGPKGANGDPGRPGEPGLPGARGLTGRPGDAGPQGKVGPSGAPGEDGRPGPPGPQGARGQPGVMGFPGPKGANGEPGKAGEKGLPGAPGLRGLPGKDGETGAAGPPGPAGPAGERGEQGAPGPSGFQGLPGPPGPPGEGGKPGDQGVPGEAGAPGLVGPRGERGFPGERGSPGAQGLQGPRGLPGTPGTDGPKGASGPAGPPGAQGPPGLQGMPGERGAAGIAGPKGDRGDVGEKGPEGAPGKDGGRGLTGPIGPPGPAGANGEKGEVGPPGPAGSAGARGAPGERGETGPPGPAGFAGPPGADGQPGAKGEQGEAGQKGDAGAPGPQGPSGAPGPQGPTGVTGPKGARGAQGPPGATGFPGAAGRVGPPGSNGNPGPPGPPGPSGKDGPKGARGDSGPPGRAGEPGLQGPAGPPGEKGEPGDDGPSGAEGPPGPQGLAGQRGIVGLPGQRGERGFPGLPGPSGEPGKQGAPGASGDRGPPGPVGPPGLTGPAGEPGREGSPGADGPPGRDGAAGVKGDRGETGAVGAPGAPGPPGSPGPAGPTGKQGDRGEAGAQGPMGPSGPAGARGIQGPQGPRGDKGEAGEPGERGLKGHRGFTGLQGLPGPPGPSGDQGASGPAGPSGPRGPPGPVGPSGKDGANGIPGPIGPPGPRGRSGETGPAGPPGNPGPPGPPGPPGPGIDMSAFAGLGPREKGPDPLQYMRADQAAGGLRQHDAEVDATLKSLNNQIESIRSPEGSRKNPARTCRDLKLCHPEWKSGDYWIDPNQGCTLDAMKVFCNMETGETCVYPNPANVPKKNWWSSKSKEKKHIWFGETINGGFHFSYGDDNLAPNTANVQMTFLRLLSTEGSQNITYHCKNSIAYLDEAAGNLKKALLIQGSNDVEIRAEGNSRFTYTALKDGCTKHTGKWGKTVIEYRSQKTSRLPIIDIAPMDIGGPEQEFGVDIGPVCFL
UniProt Q9HCH3: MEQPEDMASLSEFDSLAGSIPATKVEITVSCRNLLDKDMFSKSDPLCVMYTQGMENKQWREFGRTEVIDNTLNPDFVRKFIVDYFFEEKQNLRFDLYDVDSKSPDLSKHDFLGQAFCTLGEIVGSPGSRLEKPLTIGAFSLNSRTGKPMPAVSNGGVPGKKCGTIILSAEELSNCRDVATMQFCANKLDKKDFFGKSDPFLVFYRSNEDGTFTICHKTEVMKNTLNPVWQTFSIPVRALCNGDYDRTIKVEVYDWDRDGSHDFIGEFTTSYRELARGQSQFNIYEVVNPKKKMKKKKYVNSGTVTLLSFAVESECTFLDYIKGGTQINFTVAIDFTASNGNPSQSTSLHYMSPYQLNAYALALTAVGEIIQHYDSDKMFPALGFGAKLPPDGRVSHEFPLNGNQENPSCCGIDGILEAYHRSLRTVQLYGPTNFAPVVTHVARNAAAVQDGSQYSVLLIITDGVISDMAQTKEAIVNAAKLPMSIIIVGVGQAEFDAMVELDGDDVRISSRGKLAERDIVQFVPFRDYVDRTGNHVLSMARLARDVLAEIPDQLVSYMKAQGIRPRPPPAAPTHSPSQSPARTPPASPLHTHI
UniProt P00450: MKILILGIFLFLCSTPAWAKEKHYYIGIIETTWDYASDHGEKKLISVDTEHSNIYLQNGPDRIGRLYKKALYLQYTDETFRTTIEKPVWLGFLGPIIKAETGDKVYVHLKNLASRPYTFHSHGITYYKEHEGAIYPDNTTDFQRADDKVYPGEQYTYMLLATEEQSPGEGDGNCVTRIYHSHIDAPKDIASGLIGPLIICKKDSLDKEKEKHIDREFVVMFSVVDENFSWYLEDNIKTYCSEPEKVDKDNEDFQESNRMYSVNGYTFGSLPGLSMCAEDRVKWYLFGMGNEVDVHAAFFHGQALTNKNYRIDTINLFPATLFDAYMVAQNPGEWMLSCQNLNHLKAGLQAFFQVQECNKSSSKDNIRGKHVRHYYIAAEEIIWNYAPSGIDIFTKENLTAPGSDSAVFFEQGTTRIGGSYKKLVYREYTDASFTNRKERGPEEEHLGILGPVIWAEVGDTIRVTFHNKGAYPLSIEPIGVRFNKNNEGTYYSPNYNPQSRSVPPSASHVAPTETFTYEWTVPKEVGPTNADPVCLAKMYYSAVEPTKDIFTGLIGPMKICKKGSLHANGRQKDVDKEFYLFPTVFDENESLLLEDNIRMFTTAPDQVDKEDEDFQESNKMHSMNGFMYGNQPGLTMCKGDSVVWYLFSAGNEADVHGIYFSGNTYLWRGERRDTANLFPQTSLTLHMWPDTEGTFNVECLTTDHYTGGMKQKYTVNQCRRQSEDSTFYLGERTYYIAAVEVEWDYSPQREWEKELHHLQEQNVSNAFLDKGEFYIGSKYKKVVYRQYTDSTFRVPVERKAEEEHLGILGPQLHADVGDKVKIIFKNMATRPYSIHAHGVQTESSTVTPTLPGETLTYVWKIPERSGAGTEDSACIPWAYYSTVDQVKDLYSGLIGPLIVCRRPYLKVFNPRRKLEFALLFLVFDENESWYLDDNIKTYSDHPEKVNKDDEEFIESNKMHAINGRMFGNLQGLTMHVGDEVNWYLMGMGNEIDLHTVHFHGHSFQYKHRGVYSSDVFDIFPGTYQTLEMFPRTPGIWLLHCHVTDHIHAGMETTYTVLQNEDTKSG

Key:
Assay in all cases: log2 fold change, soluble protein after heating vs DMSO (PISA); higher = thermal stabilisation; K562 cells, 10 uM, 30 min; active = over 0.2 and 3.5 SD of the protein, either way, in both replicates (recomputed)
erlotinib = compound: C#Cc1cccc(Nc2ncnc3cc(OCCOC)c(OCCOC)cc23)c1 [erlotinib]
In short: (§1)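 K562 cells (2×10^6 cells/mL) were treated with 10 μM compound for 30 min, and aliquots were heated for 3 min over 48°C-58°C. Pooled aliquots were extracted in PBS with 0.5% NP-40 at 4°C, and the supernatant after 21,000xg for 90 min was measured by TMTpro 16plex LC-MS/MS with channel sums equalised. Reported thermal stability, relative to control samples and from duplicates, is a log2 fold change.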

[1] = compound: C/C(=N\NC(=O)C1=CC(=CC=C1)S(=O)(=O)N2CCOCC2)/C3=C(C=CC(=C3)Cl)O
In short: as §1

[2] = compound: C1=CC(=C(C=C1Cl)C2=NC3=NC=CN=C3C(=N2)NC4=CC=NC=C4)F
In short: as §1

[3] = compound: C1=CC(=CC=C1C2=NC3=C(N2)C=C(C=C3)C(=O)N)OC4=CC=C(C=C4)Cl
In short: as §1

[4] = compound: C1=CC2=C(C=CC(=C2)/C=C\3/C(=O)NC(=NCC4=CC=CS4)S3)N=C1
In short: as §1

[5] = compound: C1=CC2=NC=CN=C2C=C1/C=C/3\C(=O)NC(=O)S3
In short: as §1

[6] = compound: C1=CC=C(C=C1)C2=NC(=C(N2)C3=CC=NC=C3)C4=CC(=C(C=C4)Cl)O
In short: as §1

[7] = compound: C1=CC=C2C(=C1)C3=NNC4=CC=CC(=C43)C2=O
In short: as §1

[8] = compound: C1CCN(C1)C(=O)NC2=CC=CC(=C2)NC3=NC=C(C(=N3)NCCC4=CN=CN4)Br
In short: as §1

[9] = compound: C1CN(CCC1(CC2=CC=C(C=C2)Cl)N)C3=NC=NC4=C3C=CN4
In short: as §1

IRAK-1-4 Inhibitor I = compound: C1COCCN1CCN2C3=CC=CC=C3N=C2NC(=O)C4=CC(=CC=C4)[N+](=O)[O-] [IRAK-1-4 Inhibitor I]
In short: as §1

ibrutinib = compound: C=CC(=O)N1CCC[C@@H](n2nc(-c3ccc(Oc4ccccc4)cc3)c3c(N)ncnc32)C1 [ibrutinib]
In short: as §1

[10] = compound: CC(=O)c1cnc2ccc(-c3cc(Cl)c(O)c(Cl)c3)nc2c1N[C@H]1CC[C@H](CN(C)C)CC1
In short: as §1

ralimetinib = compound: CC(C)(C)Cn1c(N)nc2ccc(-c3[nH]c(C(C)(C)C)nc3-c3ccc(F)cc3)nc21 [ralimetinib]
In short: as §1

[11] = compound: CC(C)(O)CC(=O)NCCn1ccc2ncnc(Nc3ccc(Oc4cccc(C(F)(F)F)c4)c(Cl)c3)c21
In short: as §1

[12] = compound: CC(C)C1=C2N=C(C=C(N2N=C1)NCC3=CC=CC=C3)NCCCCCCN
In short: as §1

[13] = compound: CC(C)C[C@@H](C=O)NC(=O)[C@H](CC(C)C)NC(=O)[C@H](CC(C)C)NC(=O)OCc1ccccc1
In short: as §1

pinometostat = compound: CC(C)N(C[C@H]1O[C@@H](n2cnc3c(N)ncnc32)[C@H](O)[C@@H]1O)[C@H]1C[C@@H](CCc2nc3cc(C(C)(C)C)ccc3[nH]2)C1 [pinometostat]
In short: as §1

[14] = compound: CC1=C(C2=C(C=C1)C(=O)C3=CC=CC=C3N2CCCN)C
In short: as §1

Row | Target | log2 fold change (erlotinib) | log2 fold change [1] | log2 fold change [2] | log2 fold change [3] | log2 fold change [4] | log2 fold change [5] | log2 fold change [6] | log2 fold change [7] | log2 fold change [8] | log2 fold change [9] | log2 fold change (IRAK-1-4 Inhibitor I) | log2 fold change (ibrutinib) | log2 fold change [10] | log2 fold change (ralimetinib) | log2 fold change [11] | log2 fold change [12] | log2 fold change [13] | log2 fold change (pinometostat) | log2 fold change [14]
1 | CREB3L2 (UniProt Q70SY1) | inactive: 0.424 | inactive: 0.104 | inactive: 0.057 | inactive: -0.264 | inactive: 0.113 | inactive: -0.174 | inactive: -0.1 | inactive: -0.045 | inactive: -0.206 | inactive: 0.173 | inactive: 0.055 | inactive: 0.168 | inactive: -0.108 | inactive: -0.01 | inactive: -0.08 | inactive: 0.322 | inactive: 0.607 | inactive: -0.193 | inactive: 0.074
2 | COX17 (UniProt Q14061) | inactive: -0.032 | inactive: -0.064 | inactive: 0.375 | inactive: -0.009 | inactive: 0.035 |  | inactive: 0.207 | inactive: 0.404 | inactive: -0.117 | inactive: 0 | inactive: -0.14 |  | inactive: -0.052 | inactive: 0.41 | inactive: -0.158 | inactive: 0.019 | inactive: -0.196 | inactive: -0.014 | inactive: 0.086
3 | CSNK2A2 (UniProt P19784) | inactive: -0.053 | inactive: -0.08 | inactive: 0.046 | inactive: -0.006 | active: 0.22 | active: 0.591 | inactive: -0.038 | inactive: 0.185 | inactive: 0.034 | inactive: -0.047 | inactive: 0.033 | inactive: 0.006 | active: 0.585 | inactive: 0.001 | inactive: -0.065 | inactive: 0.026 | inactive: -0.029 | inactive: 0.149 | active: 0.235
4 | CPD (UniProt O75976) | inactive: -0.025 | inactive: -0.08 | inactive: 0.009 | inactive: 0.028 | inactive: 0.055 | inactive: 0.011 | inactive: -0.007 | inactive: -0.041 | inactive: -0.045 | inactive: 0.008 | inactive: -0.011 | inactive: -0.018 | inactive: -0.015 | inactive: -0.03 | inactive: -0.058 | inactive: -0.126 | inactive: 0.077 | inactive: 0.002 | inactive: -0.019
5 | CORO2A (UniProt Q92828) | inactive: -0.035 | inactive: 0.064 |  | inactive: -0.011 | inactive: -0.001 | inactive: 0.127 | inactive: 0.138 | inactive: -0.042 | inactive: 0.034 | inactive: 0.031 |  | inactive: -0.068 | inactive: -0.022 | inactive: 0.019 |  | inactive: -0.088 | inactive: 0.21 |  | inactive: 0.01
6 | CPSF3 (UniProt Q9UKF6) | inactive: 0.006 | inactive: 0.104 | inactive: 0.028 | inactive: 0 | inactive: -0.003 | inactive: 0.048 | inactive: 0 | inactive: -0.022 | inactive: -0.005 | inactive: -0.011 | inactive: -0.044 | inactive: -0.04 | inactive: 0.026 | inactive: -0.006 | inactive: 0.028 | inactive: -0.052 | inactive: 0.035 | inactive: 0.036 | inactive: -0.013
7 | CPSF6 isoform 2 (UniProt Q16630) | inactive: 0.023 | inactive: 0.079 | inactive: -0.072 | inactive: 0.122 | inactive: -0.04 | inactive: -0.026 | inactive: -0.002 | inactive: -0.016 | inactive: -0.021 | inactive: -0.135 | inactive: -0.047 | inactive: 0 | active: -0.599 | inactive: -0.017 | inactive: 0.02 | inactive: -0.029 | inactive: -0.053 | inactive: 0.004 | inactive: 0.195
8 | CRKL (UniProt P46109) | inactive: -0.012 | inactive: -0.002 | inactive: 0.014 | inactive: -0.02 | inactive: 0.047 | inactive: 0.006 | inactive: -0.069 | inactive: -0.017 | inactive: 0.017 | inactive: 0.026 | inactive: 0.035 | inactive: -0.102 | active: -1.24 | inactive: -0.054 | inactive: -0.004 | inactive: 0.042 | inactive: 0.057 | inactive: -0.022 | inactive: -0.008
9 | COL2A1 (UniProt P02458) |  | inactive: -0.085 |  |  | inactive: 0.093 |  |  | inactive: -0.183 | inactive: 0.105 | inactive: 0.315 |  |  | inactive: 0.185 |  |  |  |  |  | inactive: -0.183
10 | CPNE5 (UniProt Q9HCH3) | inactive: 0.074 |  |  | inactive: -0.175 |  |  |  |  | inactive: 0.087 | active: -0.879 |  |  |  |  |  | inactive: -0.209 |  |  | inactive: -0.225
11 | CP (UniProt P00450) |  |  |  |  |  | inactive: -0.395 | inactive: 0.158 |  |  |  |  | inactive: 0.193 |  | inactive: 0.242 |  |  | inactive: -0.076 |  | 
12 | COQ2 (UniProt Q96H96) | inactive: 0.131 |  | inactive: 0.02 | inactive: 0.104 |  |  |  |  |  |  |  |  |  |  | inactive: 0.414 | inactive: -0.163 |  |  | 
13 | CPEB4 (UniProt Q17RY0) |  | inactive: -0.026 |  |  | inactive: -0.01 | inactive: 0.032 | inactive: -0.075 | inactive: -0.024 | inactive: -0.056 | inactive: 0.027 | inactive: -0.025 | inactive: -0.014 | inactive: -0.158 | inactive: -0.01 |  |  | inactive: 0.09 | inactive: 0.02 | inactive: 0.012

Some of the entries so far, with tabs:
Row	Target	log2 fold change (erlotinib)	log2 fold change [1]	log2 fold change [2]	log2 fold change [3]	log2 fold change [4]	log2 fold change [5]	log2 fold change [6]	log2 fold change [7]	log2 fold change [8]	log2 fold change [9]	log2 fold change (IRAK-1-4 Inhibitor I)	log2 fold change (ibrutinib)	log2 fold change [10]	log2 fold change (ralimetinib)	log2 fold change [11]	log2 fold change [12]	log2 fold change [13]	log2 fold change (pinometostat)	log2 fold change [14]
6	CPSF3 (UniProt Q9UKF6)	inactive: 0.006	inactive: 0.104	inactive: 0.028	inactive: 0	inactive: -0.003	inactive: 0.048	inactive: 0	inactive: -0.022	inactive: -0.005	inactive: -0.011	inactive: -0.044	inactive: -0.04	inactive: 0.026	inactive: -0.006	inactive: 0.028	inactive: -0.052	inactive: 0.035	inactive: 0.036	inactive: -0.013
9	COL2A1 (UniProt P02458)		inactive: -0.085			inactive: 0.093			inactive: -0.183	inactive: 0.105	inactive: 0.315			inactive: 0.185						inactive: -0.183
